# Test results reported in the supplement of paper PMC12067093, “Discovery and optimisation of a covalent ligand for TRIM25 and its application to targeted protein ubiquitination” (Chemical Science, 2025).
# By UniProt entry, the sequences of proteins in these tests, tags left out. Where a name states a change or a piece, a line headed by the entry shows the natural chain unless it says otherwise.
# UniProt Q5JTH9: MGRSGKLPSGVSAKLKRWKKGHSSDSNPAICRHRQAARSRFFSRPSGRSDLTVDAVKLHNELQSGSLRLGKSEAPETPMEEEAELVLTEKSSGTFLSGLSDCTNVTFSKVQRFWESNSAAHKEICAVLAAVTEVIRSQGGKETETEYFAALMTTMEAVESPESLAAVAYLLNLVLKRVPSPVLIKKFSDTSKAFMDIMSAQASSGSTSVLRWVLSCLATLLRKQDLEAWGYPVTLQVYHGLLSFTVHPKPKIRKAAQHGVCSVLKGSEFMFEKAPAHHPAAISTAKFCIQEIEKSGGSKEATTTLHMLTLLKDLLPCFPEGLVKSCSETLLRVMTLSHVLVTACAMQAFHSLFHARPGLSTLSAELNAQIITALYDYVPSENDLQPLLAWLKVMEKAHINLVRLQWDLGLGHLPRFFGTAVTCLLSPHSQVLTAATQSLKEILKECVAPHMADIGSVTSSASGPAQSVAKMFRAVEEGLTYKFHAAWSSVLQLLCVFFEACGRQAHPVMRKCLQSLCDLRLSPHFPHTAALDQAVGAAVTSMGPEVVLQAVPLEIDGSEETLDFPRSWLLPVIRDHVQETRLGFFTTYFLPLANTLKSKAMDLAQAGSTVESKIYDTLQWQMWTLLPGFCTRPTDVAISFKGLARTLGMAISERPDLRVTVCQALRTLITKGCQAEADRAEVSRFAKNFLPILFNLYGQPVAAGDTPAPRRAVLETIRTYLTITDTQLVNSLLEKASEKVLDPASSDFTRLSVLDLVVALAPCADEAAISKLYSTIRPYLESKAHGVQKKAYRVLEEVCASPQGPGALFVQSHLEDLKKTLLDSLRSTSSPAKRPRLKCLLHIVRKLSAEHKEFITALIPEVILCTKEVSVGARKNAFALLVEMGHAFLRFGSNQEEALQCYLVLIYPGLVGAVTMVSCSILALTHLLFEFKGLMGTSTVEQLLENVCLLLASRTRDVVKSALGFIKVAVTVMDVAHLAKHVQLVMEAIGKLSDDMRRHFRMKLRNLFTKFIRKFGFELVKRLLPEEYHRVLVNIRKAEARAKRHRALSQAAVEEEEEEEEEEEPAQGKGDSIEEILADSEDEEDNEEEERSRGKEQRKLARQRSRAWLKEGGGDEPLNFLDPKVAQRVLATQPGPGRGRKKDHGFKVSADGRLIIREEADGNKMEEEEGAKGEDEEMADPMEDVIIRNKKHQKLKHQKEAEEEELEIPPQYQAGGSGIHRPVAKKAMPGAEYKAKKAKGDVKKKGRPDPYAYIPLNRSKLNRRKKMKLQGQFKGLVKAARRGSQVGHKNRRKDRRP
# The list shows a part of the results.
# Target: RRP12_Q5JTH9_839_CLLHIVR (UniProt Q5JTH9)
# Assay: probe-labelled cysteine peptide fold change vs DMSO (competition) (log2 fold change); higher = less target engagement (more negative = stronger competition)
# Conditions: THP-1, incubation time: 4 h
# 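Note: competitive chemoproteomic profiling in live THP-1 cells with an iodoacetamide desthiobiotin (IA-DTB) probe, comparing probe-labelled peptide intensities in compound-treated cells against DMSO-treated controls.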
compound,measurement,setting,value
CC1Cc2ccccc2N1C(=O)C1CCCN(C(=O)CCl)C1 (mixture of isomers) [TRIM25 ligand 11 (diastereomer mixture)],probe-labelled cysteine peptide fold change,10 µM,-0.209
same,probe-labelled cysteine peptide fold change,50 µM,0.038
